Data: patent US20080033031A1, “ANTIBIOTIC COMPOUNDS, COMPOSITIONS AND METHODS OF TREATMENT” (priority 2004, published 2008)
Structures can show the parent of a compound that is named as a salt.

Legend:
S. aureus ATCC 6538 = assay: MIC against S. aureus ATCC 6538; assay type: cell-based; settings: Staphylococcus aureus, ATCC6538
Procedure: (§1) The microbiological activity of clindamycin analogs was evaluated by measuring the minimum inhibitory concentrations (MIC) of each compound against Staphylococcus aureus (S. aureus) and Propionibacterium acnes (P. acnes). These two microorganisms were selected, as they are commonly known to be the contributing factors for acne. The compounds evaluated were the following: • a. […] Clindamycin sulfone (CSO2) and its salts • d. Clindamycin phosphate • e.

P. acnes ATCC 1127 = assay: MIC against P. acnes ATCC 1127; assay type: cell-based, Propionibacterium acnes; settings: Cutibacterium acnes, ATCC1127
Procedure: as §1

P. acnes ATCC 11827 = assay: MIC against P. acnes ATCC 11827; assay type: cell-based, Propionibacterium acnes; settings: Cutibacterium acnes, ATCC11827
Procedure: as §1

[1] = Stability studies with benzoyl peroxide in buffer solutions; assay type: physicochemical; settings: 1% analog with 5% BPO, pH 3 buffer, 50° C.
Procedure: The concentrations of each of the clindamycin analogs and BPO in the mixtures were 1% (w/w) and 5% (w/w), respectively.
Samples were prepared by dissolving each of the clindamycin analogs and suspending the BPO powder in the buffer solutions of different pHs. Samples were placed either at RT or at 50° C. Samples were pulled at time intervals and tested for the appropriate clindamycin analog and pH.
The figures show the plots of the percent remaining (% of initial) of the clindamycin analog versus time. The percent of initial is obtained by normalizing the concentration at each time point to the initial concentration.

**Q.** With `CCC[C@@H]1C[C@@H](C(=O)N[C@@H]([C@H]2O[C@H](SC)[C@H](O)[C@@H](O)[C@H]2O)[C@H](C)Cl)N(C)C1` [Clindamycin HCl, reference compound] as the compound, how does the MIC (S. aureus ATCC 6538) read?
**A.** < 0.8 µg/mL

**Q.** And the MIC (P. acnes ATCC 1127)?
**A.** < 0.8 µg/mL

**Q.** What about the MIC (P. acnes ATCC 11827) of the same compound?
**A.** 0.062 µg/mL

**Q.** What about the “loss of active in the sample” value ([1]; after 4 weeks of storage) of the same compound?
**A.** 60%

**Q.** And the “remained in the solution (% of initial)” value ([1]; after 8 weeks of storage)?
**A.** less than 10%
